Results as given in article PMC12003641.
These are yes or no findings as the source states them, for the method shown. In cells and extracts the contact can be indirect. Some results given as binding are weak or reduced against the parent protein; the word gives no strength. For part of these data: Sequences can lack the tags named with a protein.

By UniProt entry, the sequences of proteins in these tests, tags left out.
UniProt P40337: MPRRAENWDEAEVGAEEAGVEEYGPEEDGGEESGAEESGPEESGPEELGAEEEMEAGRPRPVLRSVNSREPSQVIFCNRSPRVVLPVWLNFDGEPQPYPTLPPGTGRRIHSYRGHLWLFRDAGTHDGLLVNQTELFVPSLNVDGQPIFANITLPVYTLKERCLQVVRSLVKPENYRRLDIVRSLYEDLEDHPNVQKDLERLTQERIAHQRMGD

Assays:
[1] = target: VHL, endogenous in HEK293A (human (endogenous in HEK293A)) (UniProt P40337); assay: co-IP; endogenous proteins; lysate of HEK293A treated with 10 µM MG132 for 4 h; anti-VHL antibody against an IgG1 isotype control; mild lysis buffer
[2] = target: HA-VHL stably reconstituted in 786-O cells (HA-VHL-pRc/CMV) (UniProt P40337); assay: co-IP; lysate of MG132-treated 786-O cells stably reconstituted with HA-VHL; VHL-targeting antibody against an isotype control
Flag-tagged VHL = Flag-tagged VHL (UniProt P40337); assay: co-IP; HEK293A transfected with indicated plasmids, 10 µM MG132 as indicated for 4 h; immunoprecipitation of Flag-VHL; normoxia or hypoxia (0.5% O2 for 24 h)

B1: retinoblastoma protein (pRb), endogenous in HEK293A (protein, UniProt P06400 1-928)
chain: MPPKTPRKTAATAAAAAAEPPAPPPPPPPEEDPEQDSGPEDLPLVRLEFEETEEPDFTALCQKLKIPDHVRERAWLTWEKVSSVDGVLGGYIQKKKELWGICIFIAAVDLDEMSFTFTELQKNIEISVHKFFNLLKEIDTSTKVDNAMSRLLKKYDVLFALFSKLERTCELIYLTQPSSSISTEINSALVLKVSWITFLLAKGEVLQMEDDLVISFQLMLCVLDYFIKLSPPMLLKEPYKTAVIPINGSPRTPRRGQNRSARIAKQLENDTRIIEVLCKEHECNIDEVKNVYFKNFIPFMNSLGLVTSNGLPEVENLSKRYEEIYLKNKDLDARLFLDHDKTLQTDSIDSFETQRTPRKSNLDEEVNVIPPHTPVRTVMNTIQQLMMILNSASDQPSENLISYFNNCTVNPKESILKRVKDIGYIFKEKFAKAVGQGCVEIGSQRYKLGVRLYYRVMESMLKSEEERLSIQNFSKLLNDNIFHMSLLACALEVVMATYSRSTSQNLDSGTDLSFPWILNVLNLKAFDFYKVIESFIKAEGNLTREMIKHLERCEHRIMESLAWLSDSPLFDLIKQSKDREGPTDHLESACPLNLPLQNNHTAADMYLSPVRSPKKKGSTTRVNSTANAETQATSAFQTQKPLKSTSLSLFYKKVYRLAYLRLNTLCERLLSEHPELEHIIWTLFQHTLQNEYELMRDRHLDQIMMCSMYGICKVKNIDLKFKIIVTAYKDLPHAVQETFKRVLIKEEEYDSIIVFYNSVFMQRLKTNILQYASTRPPTLSPIPHIPRSPYKFPSSPLRIPGGNIYISPLKSPYKISEGLPTPTKMTPRSRILVSIGESFGTSEKFQKINQMVCNSDRVLKRSAEGSNPPKPLKKLRFDIEGSDEADGSKHLPGESKFQQKLAEMTSTRTRMQKQKMNDSMDTSNKEEK
[1]
  binding: binds

B2: retinoblastoma protein (pRb), endogenous in 786-O (protein, UniProt P06400 1-928)
chain: MPPKTPRKTAATAAAAAAEPPAPPPPPPPEEDPEQDSGPEDLPLVRLEFEETEEPDFTALCQKLKIPDHVRERAWLTWEKVSSVDGVLGGYIQKKKELWGICIFIAAVDLDEMSFTFTELQKNIEISVHKFFNLLKEIDTSTKVDNAMSRLLKKYDVLFALFSKLERTCELIYLTQPSSSISTEINSALVLKVSWITFLLAKGEVLQMEDDLVISFQLMLCVLDYFIKLSPPMLLKEPYKTAVIPINGSPRTPRRGQNRSARIAKQLENDTRIIEVLCKEHECNIDEVKNVYFKNFIPFMNSLGLVTSNGLPEVENLSKRYEEIYLKNKDLDARLFLDHDKTLQTDSIDSFETQRTPRKSNLDEEVNVIPPHTPVRTVMNTIQQLMMILNSASDQPSENLISYFNNCTVNPKESILKRVKDIGYIFKEKFAKAVGQGCVEIGSQRYKLGVRLYYRVMESMLKSEEERLSIQNFSKLLNDNIFHMSLLACALEVVMATYSRSTSQNLDSGTDLSFPWILNVLNLKAFDFYKVIESFIKAEGNLTREMIKHLERCEHRIMESLAWLSDSPLFDLIKQSKDREGPTDHLESACPLNLPLQNNHTAADMYLSPVRSPKKKGSTTRVNSTANAETQATSAFQTQKPLKSTSLSLFYKKVYRLAYLRLNTLCERLLSEHPELEHIIWTLFQHTLQNEYELMRDRHLDQIMMCSMYGICKVKNIDLKFKIIVTAYKDLPHAVQETFKRVLIKEEEYDSIIVFYNSVFMQRLKTNILQYASTRPPTLSPIPHIPRSPYKFPSSPLRIPGGNIYISPLKSPYKISEGLPTPTKMTPRSRILVSIGESFGTSEKFQKINQMVCNSDRVLKRSAEGSNPPKPLKKLRFDIEGSDEADGSKHLPGESKFQQKLAEMTSTRTRMQKQKMNDSMDTSNKEEK
[2]
  binding: binds

B3: pRb in the Flag-VHL immunoprecipitation of Fig. 3A (protein, UniProt P06400 1-928)
chain: MPPKTPRKTAATAAAAAAEPPAPPPPPPPEEDPEQDSGPEDLPLVRLEFEETEEPDFTALCQKLKIPDHVRERAWLTWEKVSSVDGVLGGYIQKKKELWGICIFIAAVDLDEMSFTFTELQKNIEISVHKFFNLLKEIDTSTKVDNAMSRLLKKYDVLFALFSKLERTCELIYLTQPSSSISTEINSALVLKVSWITFLLAKGEVLQMEDDLVISFQLMLCVLDYFIKLSPPMLLKEPYKTAVIPINGSPRTPRRGQNRSARIAKQLENDTRIIEVLCKEHECNIDEVKNVYFKNFIPFMNSLGLVTSNGLPEVENLSKRYEEIYLKNKDLDARLFLDHDKTLQTDSIDSFETQRTPRKSNLDEEVNVIPPHTPVRTVMNTIQQLMMILNSASDQPSENLISYFNNCTVNPKESILKRVKDIGYIFKEKFAKAVGQGCVEIGSQRYKLGVRLYYRVMESMLKSEEERLSIQNFSKLLNDNIFHMSLLACALEVVMATYSRSTSQNLDSGTDLSFPWILNVLNLKAFDFYKVIESFIKAEGNLTREMIKHLERCEHRIMESLAWLSDSPLFDLIKQSKDREGPTDHLESACPLNLPLQNNHTAADMYLSPVRSPKKKGSTTRVNSTANAETQATSAFQTQKPLKSTSLSLFYKKVYRLAYLRLNTLCERLLSEHPELEHIIWTLFQHTLQNEYELMRDRHLDQIMMCSMYGICKVKNIDLKFKIIVTAYKDLPHAVQETFKRVLIKEEEYDSIIVFYNSVFMQRLKTNILQYASTRPPTLSPIPHIPRSPYKFPSSPLRIPGGNIYISPLKSPYKISEGLPTPTKMTPRSRILVSIGESFGTSEKFQKINQMVCNSDRVLKRSAEGSNPPKPLKKLRFDIEGSDEADGSKHLPGESKFQQKLAEMTSTRTRMQKQKMNDSMDTSNKEEK
Flag-tagged VHL
  binding: binds
